{"source": "PubChem BioAssay AID2061324", "about": "(National Center for Advancing Translational Sciences (NCATS), 2025)", "note": "This list was built around the results that the source calls inconclusive (neither active nor inactive); the mix of calls is not that of the screen. Where the call is inconclusive, the potency comes from a doubtful curve fit. Active and inactive are the calls of the source. The call rests on the fitted dose curve; in most records, active means well fitted inhibition curve with a large enough effect; inconclusive means small, poorly fitted or top-dose-only effect; inactive means flat fitted curve, though single readings scatter. Square brackets hold non-standard residues; d marks the D form. Peptide text beside a SMILES is read from it. * marks the point of attachment. Dolaproine = CO[C@@H]([C@@H]1CCCN1)[C@@H](C)C(=O)O; Dil = CC[C@H](C)[C@H](NC)[C@@H](CC(=O)O)OC; NMe2Val = CC(C)[C@@H](C(=O)*)N(C)C; X1 = C[C@@H](N*)[C@@H](O)c1ccccc1; NMeV = CN[C@H](C(=O)O)C(C)C"}
{"experiment": "Identification of antibody-drug conjugate (ADC) payloads which are substrates of ATP-binding cassette drug efflux transporters: ABCG2-HEK293-pcDNA cell line", "conditions": "ABCG2-HEK293 transfected cells viability, CellTiter-Glo, 48 h", "excerpt": "Antibody-drug conjugates (ADCs) feature an antibody recognizing a specific protein joined to a potent toxic payload. Numerous antibody-drug conjugates have received FDA approval; however, clinical resistance arises. Resistance mechanisms include decreased expression or mutation of the antibody target, impaired payload release, or increased expression of ATP-binding cassette (ABC) efflux transporters associated with multidrug resistance. We therefore sought to characterize the interaction of ABC multidrug transporters with ADC payloads. We performed a high-throughput screen with 27 common ADC payloads using cells lines expressing ABC transporters P-glycoprotein (P-gp, encoded by ABCB1) or ABCG2 (encoded by ABCG2). Confirmatory assays were also performed using cells transfected to express P-gp, ABCG2, or MRP1 (encoded by ABCC1). Several commonly used ADC payloads were substrates of P-gp, including calicheamicin gamma1, monomethyl auristatin E, DM1, and DM4. All the pyrrolobenzodiazepines tested - SJG136, SGD-1882, SG2057, and SG3199 - were substrates of P-gp, ABCG2, and MRP1. […] These findings highlight the risk of transporter-mediated resistance with certain ADC payloads and underscore the importance of selecting payloads that evade ABC transporter recognition in future ADC development.\nHEK-293 cells were transfected with empty vector (pcDNA) or vector containing the human ABCB1 (MDR-19), ABCG2 (R-5), or ABCC1 gene (MRP1) and were maintained in EMEM with 2 mg/mL G418 added to maintain transporter expression. The HeLa derivative KB-3-1 and the P-gp overexpressing KB-8-5-11 subline were maintained in DMEM; KB-8-5-11 additionally received 100 ng/mL colchicine. H460 parental cells were obtained from the Division of Cancer Treatment and Diagnosis Tumor Repository, National Cancer Institute at Frederick, MD and were cultured in RPMI. The ABCG2 expressing subline H460 MX20 was generated by selecting H460 cells in 20 nM mitoxantrone. Media in all cases was supplemented with 10% FBS and 1% penicillin-streptomycin. We explored 27 common ADC payloads, in two orthogonal, paired cell line sets-a drug selected and transfected set for each transporter--to identify substrates of the ABC transporters P-gp and ABCG2. Compounds were sourced from Levena Biopharma (San Diego, CA), Selleck Chem (Houston, TX), ChemieTek (Indianapolis, IN), or Microsource Discovery Systems (Gaylordsville, CT). Screening was performed as previously described. Briefly, cells were plated at a density of 500 cells/well in 1536 well plates with compounds added using a 1536-head pin tool (Kalypsys, San Diego CA). Cells were incubated with cytotoxic drugs and processed with CellTiter Glo reagent (Promega, Madison, WI) to determine viability after 48 hours. P-gp substrates were identified by comparing compound activity between paired sets of low-expressing (sensitive) and over-expressing (resistant) cell lines."}
{"compound": "CC[C@H](C)[C@@H]([C@@H](CC(=O)N1CCC[C@H]1[C@H](OC)[C@@H](C)C(=O)N[C@H](C)[C@@H](O)c1ccccc1)OC)N(C)C(=O)[C@@H](NC(=O)[C@@H](NC)C(C)C)C(C)C", "note": "(H-[NMeV]V[Dil][Dolaproine]-X1)", "Potency": "inconclusive: 30 nM [falling, full curve]"}
{"compound": "COc1cccc2c1C(=O)c1c(O)c3c(c(O)c1C2=O)C[C@@](O)(C(=O)CO)CC3OC1CC(N2CCOC(OC)C2)C(O)C(C)O1", "note": "(some centres not stated)", "Potency": "inconclusive: 2.4 nM [falling, full curve]"}
{"compound": "CC[C@H](C)[C@@H]([C@@H](CC(=O)N1CCC[C@H]1[C@H](OC)[C@@H](C)C(=O)N[C@@H](Cc1ccccc1)C(=O)O)OC)N(C)C(=O)[C@@H](NC(=O)[C@H](C(C)C)N(C)C)C(C)C", "note": "(NMe2Val-V[Dil][Dolaproine]F-OH)", "Potency": "inconclusive: 671 nM [falling, full curve]"}
{"compound": "CC[C@H](C)[C@H](NC(=O)[C@H]1CCCCN1C)C(=O)N(C)[C@H](C[C@@H](OC(C)=O)c1nc(C(=O)O)cs1)C(C)C", "Potency": "inconclusive: 5330 nM [falling, partial curve]"}
{"compound": "CC[C@H](C)[C@@H]1NC(=O)CNC(=O)[C@H]2Cc3c([nH]c4cc(O)ccc34)S(=O)C[C@H](NC(=O)CNC1=O)C(=O)N[C@@H](CC(N)=O)C(=O)N1C[C@H](O)C[C@H]1C(=O)N[C@@H]([C@@H](C)[C@@H](O)CO)C(=O)N2", "note": "(some centres not stated)", "Potency": "inconclusive: 238 nM [falling, full curve]"}
{"compound": "COc1cc2cc(c1Cl)N(C)C(=O)C[C@H](OC(=O)[C@H](C)N(C)C(=O)CCS)[C@]1(C)OC1[C@H](C)C1C[C@@](O)(NC(=O)O1)[C@H](OC)/C=C/C=C(\\C)C2", "note": "(some centres not stated)", "Potency": "active: 9.5 nM"}
{"compound": "COc1cc2cc(C(=O)N3C[C@@H](CCl)c4c3cc(O)c3ccccc43)[nH]c2c(OC)c1OC", "Potency": "active: 7.5 nM"}
